Experimental data: PMC4916389

T1: TAP42, yeast two-hybrid fusion (Sordaria macrospora) (UniProt F7VNJ5)
T1 sequence: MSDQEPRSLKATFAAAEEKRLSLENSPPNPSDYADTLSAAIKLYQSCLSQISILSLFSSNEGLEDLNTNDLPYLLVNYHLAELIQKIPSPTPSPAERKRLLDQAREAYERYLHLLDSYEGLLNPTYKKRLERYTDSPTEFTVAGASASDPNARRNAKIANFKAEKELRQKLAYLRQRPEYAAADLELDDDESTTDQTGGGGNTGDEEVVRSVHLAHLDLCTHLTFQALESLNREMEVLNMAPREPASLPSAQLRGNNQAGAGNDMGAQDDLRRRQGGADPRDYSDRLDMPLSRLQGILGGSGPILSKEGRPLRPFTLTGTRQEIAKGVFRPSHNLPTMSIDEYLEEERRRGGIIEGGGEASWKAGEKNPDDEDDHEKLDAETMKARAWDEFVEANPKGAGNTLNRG


Assays:
[1] = biological target: T1, TAP42, yeast two-hybrid fusion (Sordaria macrospora); test: two-hybrid; Gal4 AD (pGADT7 derivatives, PJ69-4a) and BD (pGBKT7 derivatives, PJ69-4α) fusions in mated diploid S. cerevisiae; growth on SD medium lacking adenine, histidine, leucine and tryptophan/uracil; transactivating constructs pB-pp2Ac1, pB-pro11, pB-Smmob3 and pB-ENT1 omitted
[2] = biological target: MAPK MAK1, yeast two-hybrid fusion (Sordaria macrospora); test: as above

Row | Molecule | binding [1] | binding [2]
1 | MAPK MAK1, yeast two-hybrid fusion (Sordaria macrospora) (enzyme) | binds | –
2 | PRO22, yeast two-hybrid fusion (protein, UniProt F7VWV9 1-1120) MTIMNALWSKATSSSGDSAQKSAKPTNDAVNTTSEALPDLSERPNAPALPARPALQRNQPSAPPPAAPSNPPPPVPSGSGSGNANNASAQPQDSLSLAQLRRIVAEFPKSEPIAYDYVYSDMGPIEEEVDEWFFYDFWQYVRLNNANHAFDSAWVKMYGEDETWESVDDDGREKFVRNEVEQLQVSSDKTARVEAIGTLLYIVLGRWTATVKKANLPNLADHKVKSAATKEQLDAMKAGVKLLAKYGGLPPMWDALRKAFELFWADDGDASQRVQANNEELMELMHLMTILYISLQTTMDDVEDMAVARKELLALNPNLVHFMLHATAKLRWDDRNILPQAQVGSATFGIPVAANQHRMLMSSQVFLLFWKSLLLVFGGSKHIAEAKKATAETLSDVKDKEIITASPLDYHVFRQEITSKYPSYIPPQCAIPLEAEQTSILPPLPNHPTRNNGQNGILPGPPNQSASASILHQPVHIATPAPSPPPSPGVGGKGGKKQNYQTNQNFPFMYPPLDATSNSAGGKGGAGLQDLLVGRKWEGSDVPASIIEAGELFSTRTRMTRATRQLWEERERFLKFERGWEGADEDLIDELDLSELTLEEKEELGLLKESEKKKEKHGHEIDLGPRPVDDDIKRRLEAVEEFYKEALPHLQSLVIVLLKAIVAIASSFVQPPPGQQNPGPQNNGRAGGGPPQGRGQNNGNNASNDPPSPSDDNVDEARSREIAAKAVTGIMILLLKWLKLSHILKFEYFTQLLLDSNYLPLVLKLFALHDVQQVVESKTDRIEHSFFYFCASRSGVIPPQGLINPTATDFEDVDVSEDEAAPPAIKRNRSPPGAEKGGPPDASSQPTQQQQQQQRFENSDVQSRPEVDELGYPVNPLPKEPITDFSRRNFFSLINYLRVMQKICKHKAHRNLLLVHYKSSNILRKSLKVPQQELRLYTLKLFKNQVPYCGRKWRQSNMRVITAIYLHCRPELRDEWLSGSDVDAEVEEALPLEQALRSLTHWFNVQRYPERMGAEVTAAMREERDFFTRELEKSDWMGWEGIMAGGGMGMDGGGGGPEPMMGMQGMQGMPGMPGMGMGMNMGMPGMGIGGMPGMGGMAGIEYAAAAAAAQTEHENSMGWS | – | binds

Results are given in words; binding and its absence hold for the method and conditions named. A result given as binding can be weak or reduced; the word gives no strength. Where a sequence is shown, tags or fusion partners need not be part of it.
